Here are results for one substance from article PMC11324738.

Sequences of proteins named here, by UniProt entry; tags and fusion partners are left off.
UniProt Q13585: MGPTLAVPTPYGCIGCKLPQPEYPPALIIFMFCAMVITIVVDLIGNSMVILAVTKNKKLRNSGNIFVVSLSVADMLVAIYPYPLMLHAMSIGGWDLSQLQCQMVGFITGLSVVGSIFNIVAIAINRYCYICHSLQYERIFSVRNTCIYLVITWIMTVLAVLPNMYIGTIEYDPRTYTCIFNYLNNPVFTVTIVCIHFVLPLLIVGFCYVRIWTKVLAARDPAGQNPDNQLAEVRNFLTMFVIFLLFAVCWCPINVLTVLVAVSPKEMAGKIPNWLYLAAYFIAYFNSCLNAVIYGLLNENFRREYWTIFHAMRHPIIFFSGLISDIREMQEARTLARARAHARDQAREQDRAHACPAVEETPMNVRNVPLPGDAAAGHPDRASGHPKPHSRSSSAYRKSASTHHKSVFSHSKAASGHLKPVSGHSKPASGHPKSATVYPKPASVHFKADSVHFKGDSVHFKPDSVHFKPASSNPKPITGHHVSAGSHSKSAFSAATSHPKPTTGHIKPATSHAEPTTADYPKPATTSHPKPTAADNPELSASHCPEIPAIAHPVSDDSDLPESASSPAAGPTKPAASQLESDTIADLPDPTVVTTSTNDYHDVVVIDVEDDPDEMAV

The test concerns the target GPR50-V1 and GPR50-V2 homodimer (GPR50 fused to the V1 or V2 segment of Venus, BiCAP bait) (human) (UniProt Q13585). The test can be described thus: split reporter; Venus segments V1 and V2 fused to GPR50, co-transfected in HEK 293T; the complemented homodimers captured with GFP-trap beads.

These are yes or no findings as the source states them, for the method shown. Binding seen in cells or lysates may run through a third protein. Some results given as binding are weak or reduced against the parent protein; the word gives no strength.

Regarding “GPR50-V1 and GPR50-V2 homodimer (GPR50 fused to the V1 or V2 segment of Venus, BiCAP bait) (from UniProt Q13585 1-617) (receptor)”, the binding entry is listed as “binds”.
